In patent publication US20100130620A1, “NOVEL USE OF HYDROXYTYROSOL AND OLIVE EXTRACTS/CONCENTRATES CONTAINING IT” (priority 2007, published 2010):
At least one compound was matched to its structure with a doubt left.

Tests used:
[1] = system: ARPE-19 cells; experiment: Detection of protein carbonyls (Oxyblot); assay type: cell-based, human; settings: pretreatment 100 μM HTS 48 hours, acrolein 75 μM 24 hours, FIG. 8
[2] = system: human ARPE-19 cells; assay type: cell-based
Experimental: The human ARPE-19 cells (a human retinal pigment epithelial cell-line) were maintained in DMEM-F12 medium (Dulbecco's modified Eagle's medium) supplemented with 10% fetal bovine serum, 0.348% sodium bicarbonate, 2 mM L-glutamine, 100 U/mL penicillin and 100 μg/ml streptomycin. Cell cultures were maintained at 37° C. in a humidified atmosphere of 95% air and 5% CO2. The medium was changed every 3 to 4 days. ARPE-19 cells were used within 10 generations.
All experiments were performed with an 80% confluence monolayer grown in 96-well plates or 6 well plates. Hydroxytyrosol (HTS) was dissolved in DMSO (dimethyl sulfoxide). Acrolein was dissolved in PBS (phosphate buffer salt) each time immediately before an experiment. For the acute toxicity study, cells were exposed to acrolein for 24 hours. The protective effects of HTS (Hydroxytyrosol) were studied with the acute toxicity model by pre-treating cells with HTS for 48 hours or for 7 days.
The MTT assay reduction assay was used as a […] index of cell viability. The optical densities were read at 555 nm using a microplate spectrophotometer (Spectra Max 340, Molecular Dabices, Sunnyvale, Calif.). Absorbance values were normalized with untreated cells to calculate the changes in cell viability.
The ARPE-19 cells were seeded at 4×10^4 per well in a 96 well plate. Cells were pretreated with different levels of HTS for 48 hours when cells were 80% confluent and then treated with 75 μM acrolein for 24 hours. […] In the 10-20 μM range, HTS could protect against an acute acrolein-induced decrease in cell viability.

[3] = system: intracellular SOD activity in ARPE-19 cells; experiment: Superoxide dismutase (SOD) measurement; assay type: cell-based, human; settings: FIG. 6A

## OCCc1ccc(O)c(O)c1 [HTS, 3,4-dihydroxyphenyl ethanol]
[1]
  acrolein-induced increase in protein carbonyls: significant inhibition
[2]; HTS 20 μM, pretreated for 7 days, FIG. 3
  protection against acrolein toxicity (cell viability), 7 days pretreatment: completely abolished acrolein toxicity
[2]; HTS at concentrations lower than 10 μM, ARPE-19
  protective effect against acrolein-induced cell toxicity at low concentration: no protective effect
[2]; HTS pretreatment 48 hours, then 75 μM acrolein 24 hours, FIG. 1
  protection against acrolein-induced toxicity (cell viability): significant protection
[2]; RPE cell culture model, array of antioxidants tested
  protection of RPE cells from acrolein-induced oxidative stress, compared with other antioxidants: the only one which could protect
[3]; 100 μM HTS, untreated normal ARPE-19 cells
  intracellular SOD activity without acrolein: increased intracellular SOD activity
[3]; HTS pretreatment 100 μM (48 hour), 75 μM acrolein 24 hour
  acrolein-induced decrease in intracellular SOD activity: prevented the decrease in SOD activity
